{
  "source": "patent US20180264088A1",
  "about": "“USE OF CREATINE KINASE AND DERIVED PEPTIDES THEREOF TO RELIEVE PAIN” (CENTRE NATIONAL DE LA RECHERCHE SCIENTIFIQUE, priority 2015, published 2018)",
  "test_system": "C57Bl/6J neuropathic mice",
  "experiment": "Intraperitoneal injection, mechanical nociceptive thresholds of neuropathic (cuffed) mice, von Frey filaments",
  "type": "in vivo",
  "settings": "10 nmoles",
  "data": [
    {"smiles": "CN1CC[C@]23c4c5ccc(O)c4O[C@H]2[C@@H](O)C=C[C@H]3[C@H]1C5", "note": "[morphine, reference compound]", "values": [
      {"measurement": "basic mechanical nociceptive thresholds of the contralateral hind legs", "value": "do not modify"}
    ]}
  ]
}
